Measurements from “University of Dundee, Small-Polar-MMV Screening Library” (2021), ChEMBL document CHEMBL3988442.

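Whole-cell growth test on Mycobacterium tuberculosis, read after 3 days in glucose-containing 7H9 medium; the read-out is not stated. Concentration: 50 µM. Direction is inferred from retests: higher values go with more growth inhibition. About 69,000 compounds were tested under these conditions; 1.1% (about 760) showed 50% or more at least once.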

Each number is a percent effect as filed.
The record does not define 0% and 100%; most values in the screen are far below 50% and negative numbers occur (in some assays of this library far below -100).
The compounds are a random part of those screened.
Two or more numbers in one place are separate tests of the same structure; such repeats can differ widely.

| SMILES | percent effect |
|---|---|
| `Cc1nc(C)n(CC2CCCN2Cc2nc3ccccc3nc2C)n1` (configuration not stated) | -20.03 |
| `COc1ccc(C(=O)N2CCC(Oc3ccccc3)(C(=O)O)CC2)o1` | -4.386 |
| `O=C(N[C@@H]1CCN(c2nc3ccccc3o2)C[C@H]1O)c1cnccn1` | 18.72 |
| `Cc1cc(CN2CCN(CC(O)c3cccc(F)c3)CC2)no1` (configuration not stated) | -2.363 |
| `Cc1cc(C(=O)N2CCN(Cc3ccco3)C(CCO)C2)cc(=O)[nH]1` (configuration not stated) | 16.78 |
| `O=C(O)C(F)(F)F.O=C(O)C(F)(F)F.[H][C@@]12CCN(Cc3nccs3)C[C@]1([H])O[C@@H](C(=O)Nc1cccnc1C)C2` | -15.05 |
| `CCc1c(C(=O)N2CCN(c3ncccn3)CC2)cnn1C(C)(C)C` | 7.136 |
| `O=C1CN(CCCNS(=O)(=O)c2cccc(C(=O)NC3CC3)c2)CCN1` | -8.009 |
| `CC(=O)Nc1ccc(-c2ccccc2CCN)cc1` | 40.71 |
| `Cc1nn(C)c2c(NCCCn3cccn3)nc(C(C)C)nc12` | -31.34 |
| `N[C@@H]1CCN(Cc2ccccc2CS(=O)(=O)c2ccccc2)C[C@H]1O` | 17.2 |
| `Cc1ccccc1N1CC2(CCN(S(=O)(=O)C3CC3)C2)CC1=O` (configuration not stated) | -6.068 |
| `CS(=O)(=O)NCCCN1CCCC1Cc1ccccc1` (configuration not stated) | 21.47 |
| `O=C(NC1CC1)N1Cc2[nH]nc(COc3cccnc3)c2C1.O=C(O)C(F)(F)F` | -2.66 & -14.68 |
| `O=C(Nc1ncn(CC(=O)N2CCCCCC2)n1)C1CCCO1` (configuration not stated) | -17.01 |
| `O=C1C(N2CCOCC2)CCCN1Cc1cccc(C(F)(F)F)c1` (configuration not stated) | -5.811 |
| `O=C(O)C(F)(F)F.[H][C@]12CO[C@H](CN(C)C)[C@@]1([H])CCN(C(=O)NCc1cccc(F)c1)C2` | 4.248 & -16.82 |
| `Cc1nnc(CN(C)C2CCN(c3cccc(-c4cscn4)c3)CC2)o1` | 17.94 |
| `CC(C)N1CCC2(C=C(C(=O)N(C)C)c3ccccc32)CC1.O=C(O)C(F)(F)F` | 6.453 & -2.74 |
| `Cc1nn(COc2cccc(F)c2)c(C)c1NC(=O)C1CC1` | -19.03 |
| `CCCc1nc(CN2CCCC(c3noc(C4CC4)n3)C2)no1` (configuration not stated) | -9.341 |
| `CCN(C)C(=O)[C@H]1C[C@@](CC(C)C)(C(=O)OC)N(C)[C@H]1c1cccnc1` | 8.71 |
| `CCOCC(=O)N(C)Cc1nc(C(F)(F)F)cs1` | 7.219 |
| `CCS(=O)(=O)Cc1nnnn1-c1ccccc1` | 3.966 & -2.407 |
| `CC(C)c1noc(CN2CCN(CCO)CC2)n1` | 9.101 |
| `Cc1nc(CN2CCN(c3ccc(SC(C)C)nn3)CC2)cs1` | 4.276 & -11.8 |
| `COc1ccc(C(=O)NS(=O)(=O)c2cncc(Br)c2)cc1OC` | -3.799 |
| `COCCc1noc(-c2cc(Cl)c3c(c2)OCCCO3)n1` | -15.25 |
| `CN(C)C(=O)CN1C(=O)CCC12CCN(Cc1ccc(F)cc1)CC2.O=C(O)C(F)(F)F` | -26.63 |
| `CC(C)CS(=O)(=O)Nc1ccc2c(c1)OCC(C)(C)C(=O)N2C` | -42.57 |
| `CN(C)C(=O)C1CCCN1C(=O)c1ccc(Cn2ccnc2)o1` (configuration not stated) | -4.869 & 4.76 |
| `CCS(=O)(=O)N1CCc2ccc(NC(=O)Nc3cccc(C#N)c3)cc21` | 34.25 |
| `O=C(Nc1ccc(-c2csnn2)cc1)N1CCC(N2CCCC2)C1` (configuration not stated) | -42.85 |
| `O=C(Nc1ccccn1)N(CCO)Cc1ccsc1` | 1.68 |
| `CNS(=O)(=O)c1ccc(CNC(=O)N(C)CC(C)C)cc1` | -18.31 |
| `CN1CCN(c2cc(CNC(=O)Cn3cccn3)ccn2)CC1` | 2.623 |
| `NC(=O)CN1CCCC(C(=O)N2CCC(Oc3ncccn3)CC2)C1` (configuration not stated) | 13.22 & -5.759 |
| `Cn1cc(CN2CCC3(CCN(c4cnn(C)c4)C3=O)C2)cn1.O=C(O)C(F)(F)F` (configuration not stated) | 9.168 |
| `O=C(NCCO)NCC(c1ccccc1)N1CCc2sccc2C1` (configuration not stated) | -1.279 |
| `O=C(O)C(F)(F)F.O=C(O)CCC(=O)N1CCN(CC2CC2)c2ncccc2C1` | -41.82 |
| `Cc1noc2nc(C3CCCN(Cc4ccncc4)C3)cc(C(F)F)c12` (configuration not stated) | -26.36 |
| `CCOC1COC2(CCN(Cc3ccc(C)cc3)CC2)C1.O=C(O)C(F)(F)F` (configuration not stated) | -1.074 |
| `Cc1nc(CN(C)C2CCN(CC(=O)NC3CCOCC3)C2)no1` (configuration not stated) | -35.42 |
| `CNc1nc(CNC(=O)Nc2ccc(OC(C)C)cc2F)cs1` | 31.66 |
| `CCc1nc(CN(C)C2CCN(CCOc3ccccc3)C2)no1` (configuration not stated) | -2.126 |
| `O=C(O)C(F)(F)F.[H][C@@]12CN(Cc3ccoc3)C[C@H](C(=O)N3CCCCO3)[C@]1([H])CCO2` | -4.612 & 9.092 |
| `COc1cccc(C(=O)C2CCCN(c3nccc(N)n3)C2)c1` (configuration not stated) | -29.33 |
| `O=C(Nc1cccc(-c2cscn2)c1)N1CCC2(CC1)CC(O)CO2` (configuration not stated) | 10.87 |
| `CCc1csc(C2CCCN(C(=O)c3cnc[nH]3)C2)n1` (configuration not stated) | -0.8611 |

The first 6 entries again:

- Cc1nc(C)n(CC2CCCN2Cc2nc3ccccc3nc2C)n1 (configuration not stated) : -20.03%
- COc1ccc(C(=O)N2CCC(Oc3ccccc3)(C(=O)O)CC2)o1 : -4.386%
- O=C(N[C@@H]1CCN(c2nc3ccccc3o2)C[C@H]1O)c1cnccn1 : 18.72%
- Cc1cc(CN2CCN(CC(O)c3cccc(F)c3)CC2)no1 (configuration not stated) : -2.363%
- Cc1cc(C(=O)N2CCN(Cc3ccco3)C(CCO)C2)cc(=O)[nH]1 (configuration not stated) : 16.78%
- O=C(O)C(F)(F)F.O=C(O)C(F)(F)F.[H][C@@]12CCN(Cc3nccs3)C[C@]1([H])O[C@@H](C(=O)Nc1cccnc1C)C2 : -15.05%